Record: PubChem BioAssay AID686943 (Drosophila RNAi Screening Center, 2013)

Aim: 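Fly genes whose loss alters ERK activation after insulin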 (primary screen)
Cell system: Drosophila S2R+ haemocyte-like cells expressing YFP-tagged ERK (Rolled)
Reagent: long dsRNA against Drosophila genes
Conditions: insulin stimulation versus unstimulated cells; dose and duration not given
Read-out: 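Per-plate z-scores of phospho-ERK immunostaining normalised to YFP-tagged ERK, measured with and without insulin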
Direction: replicate 1, z-score of dpERK with insulin and replicate 2, z-score of dpERK with insulin: higher = more active ERK per ERK-YFP after insulin; replicate 1, z-score of dpERK under basal conditions: higher = more basal active ERK per ERK-YFP; replicate 1, z-score of ERK-YFP with insulin: higher = more YFP-tagged ERK signal
The screen tested about 23,000 reagents; shown is an unselected part of those that have a named target and a result. 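Extra replicates exist only for a retested subset of genes; insulin dose and duration not given; both raised and lowered dpERK matter.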 A plus sign joins genes that one reagent is predicted to hit. The record does not give: the amount of reagent, the time to read-out.

target gene | amplicon | replicate 1, z-score of dpERK with insulin | replicate 2, z-score of dpERK with insulin | replicate 1, z-score of dpERK under basal conditions | replicate 1, z-score of ERK-YFP with insulin
soti | DRSC16432 | 0.46 | 0.3 | -0.31 | -0.2
CG31769 | DRSC01361 | -0.35 | 0.52 | 0 | -0.18
Spn77Bb + Spn77Bc | DRSC10689 | 0.19 | 0.41 | -0.68 | -0.42
Spn77Bb + Spn77Bc | DRSC11793 | 1 | 0.4 | 0.23 | -0.13
f | DRSC19174 | 0.52 | 1.05 | 0.44 | -1.54
f | DRSC19516 | -0.96 | -0.61 | -0.74 | -0.21
f | DRSC20331 | 0.02 | -0.26 | 0.05 | 0.56
CG13896 | DRSC08366 | 0.07 | -0.49 | – | -0.09
CG43861 | DRSC02170 | -1 | -0.91 | -1.45 | 0.89
CG43861 | DRSC02308 | 0.07 | -0.27 | -0.4 | -0.12
Lkr | DRSC09754 | -0.33 | -0.66 | -0.26 | 0.79
CG2162 | DRSC08557 | -1.3 | -2.36 | -2.2 | -0.25
CG13995 | DRSC00907 | 1.17 | -0.25 | 2.25 | -0.43
CG13995 | DRSC02327 | 0.8 | 0.45 | 0.25 | -0.12
CG13995 | DRSC22767 | 1.59 | 1.4 | 0.28 | -0.2
spn-B | DRSC17063 | -0.25 | 0.77 | 1.33 | 0.13
CG3699 | DRSC18171 | -0.37 | -0.18 | -0.89 | 0.52
CG3699 | DRSC18642 | 0.5 | 0 | 0.03 | -0.22
mid | DRSC02977 | -0.32 | -1.26 | 1.31 | 0.88
mid | DRSC21493 | 0.2 | -0.01 | -0.57 | 0.02
CG8607 | DRSC11012 | -0.53 | -0.11 | -0.01 | 0.37
CG15283 | DRSC01980 | 0.16 | -0.05 | 0.12 | -0.34
CG10694 | DRSC14263 | -0.69 | 0 | 0.31 | -0.14
Usp2 | DRSC20590 | -0.99 | -0.27 | -1.14 | 1.25
Usp2 | DRSC20632 | 0.24 | -0.28 | 1.69 | 0.73
Usp2 | DRSC20633 | 0.35 | 0.82 | -0.15 | 0.81
CG14301 | DRSC14780 | -0.5 | -0.42 | -0.23 | -0.4

Reformatted: 6 of the entries above
{"target gene": "CG2162", "amplicon": "DRSC08557", "replicate 1, z-score of dpERK with insulin": -1.3, "replicate 2, z-score of dpERK with insulin": -2.36, "replicate 1, z-score of dpERK under basal conditions": -2.2, "replicate 1, z-score of ERK-YFP with insulin": -0.25}
{"target gene": "CG13995", "amplicon": "DRSC00907", "replicate 1, z-score of dpERK with insulin": 1.17, "replicate 2, z-score of dpERK with insulin": -0.25, "replicate 1, z-score of dpERK under basal conditions": 2.25, "replicate 1, z-score of ERK-YFP with insulin": -0.43}
{"target gene": "CG13995", "amplicon": "DRSC02327", "replicate 1, z-score of dpERK with insulin": 0.8, "replicate 2, z-score of dpERK with insulin": 0.45, "replicate 1, z-score of dpERK under basal conditions": 0.25, "replicate 1, z-score of ERK-YFP with insulin": -0.12}
{"target gene": "CG13995", "amplicon": "DRSC22767", "replicate 1, z-score of dpERK with insulin": 1.59, "replicate 2, z-score of dpERK with insulin": 1.4, "replicate 1, z-score of dpERK under basal conditions": 0.28, "replicate 1, z-score of ERK-YFP with insulin": -0.2}
{"target gene": "spn-B", "amplicon": "DRSC17063", "replicate 1, z-score of dpERK with insulin": -0.25, "replicate 2, z-score of dpERK with insulin": 0.77, "replicate 1, z-score of dpERK under basal conditions": 1.33, "replicate 1, z-score of ERK-YFP with insulin": 0.13}
{"target gene": "CG3699", "amplicon": "DRSC18171", "replicate 1, z-score of dpERK with insulin": -0.37, "replicate 2, z-score of dpERK with insulin": -0.18, "replicate 1, z-score of dpERK under basal conditions": -0.89, "replicate 1, z-score of ERK-YFP with insulin": 0.52}

Further results follow:
target gene | amplicon | replicate 1, z-score of dpERK with insulin | replicate 2, z-score of dpERK with insulin | replicate 1, z-score of dpERK under basal conditions | replicate 1, z-score of ERK-YFP with insulin
Arglu1 | DRSC02909 | -0.33 | 0.51 | -0.6 | 1.13
CG32006 | DRSC21768 | 0.13 | 0.1 | 0.99 | 0.08
cGlr2 | DRSC04017 | 0 | -1.89 | 0.26 | -3.89
Phf5a | DRSC03261 | 2.84 | 1.05 | -0.7 | 0.05
CG3649 | DRSC04400 | 1.41 | 0.49 | 0.79 | -0.71
RpS16 | DRSC04442 | -1.48 | -1.08 | -2.09 | -1.31
S-Lap1 | DRSC10627 | -0.46 | -0.38 | 0.57 | 0
InR | DRSC16717 | -1.14 | -4.78 | -0.48 | 0.17
Dhc1 | DRSC12748 | 0.92 | 0.81 | 0.64 | -0.87
Dhc1 | DRSC16503 | 0.21 | 0.62 | 0.7 | 0.1
CG15253 | DRSC01871 | 0.96 | 0.16 | -0.39 | -0.16
CG5823 | DRSC15881 | 0.51 | -0.13 | -0.08 | 0.07
Pal1 | DRSC06106 | 0.04 | 0.27 | -0.07 | -0.09
CG4360 | DRSC15566 | 0.24 | 0 | -0.11 | 0.34
Rtel1 | DRSC18343 | -0.41 | -0.4 | 0.02 | 0.19
CG43446 | DRSC13458 | 1.41 | -0.64 | -0.27 | 0.37
Gem4b + Gem4c + Glos | DRSC18244 | 1.27 | 0.57 | -0.28 | -0.07
CG13775 | DRSC02279 | 0.71 | 0.07 | 1.38 | 0.03
CG3420 | DRSC04995 | 0.38 | -0.09 | 0.55 | 0.99
Abp1 | DRSC09693 | 0.18 | 0.47 | 0.1 | 0.18
CG9522 | DRSC20197 | -0.77 | 0.56 | 0.58 | 0.4
Nsun5 | DRSC15835 | -0.25 | -0.06 | -0.61 | 0.11
Oseg4 | DRSC08548 | -0.27 | -0.2 | -0.08 | 1.02
GalT1 | DRSC22238 | 0.04 | 0.34 | 0.62 | -1.37
frac | DRSC10867 | 0.05 | 0.22 | -0.09 | -0.01
MAGE | DRSC12504 | 0.79 | 0.25 | 1.45 | -0.14
Pex19 | DRSC02839 | 0.57 | -0.53 | 0.08 | -0.24
nullo | DRSC18807 | 0.58 | 0.01 | -0.16 | 0.26
CG5080 | DRSC00677 | -0.15 | -0.58 | 0.94 | -0.33
cyc | DRSC11337 | -0.06 | 0.9 | -0.55 | -0.29
